Experimental data published in the supplement of paper PMC10849652.
The other results are listed elsewhere or left out.

The chains behind the UniProt entries cited, without tags or fusion partners. Where a name states a change or a piece, a line headed by the entry shows the natural chain unless it says otherwise.
UniProt P49006: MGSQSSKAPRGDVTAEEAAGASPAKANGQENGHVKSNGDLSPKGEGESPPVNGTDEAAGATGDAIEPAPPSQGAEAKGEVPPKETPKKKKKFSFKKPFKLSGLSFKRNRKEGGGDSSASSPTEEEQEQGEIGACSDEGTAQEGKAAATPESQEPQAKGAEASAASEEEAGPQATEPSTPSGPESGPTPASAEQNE
UniProt O75608: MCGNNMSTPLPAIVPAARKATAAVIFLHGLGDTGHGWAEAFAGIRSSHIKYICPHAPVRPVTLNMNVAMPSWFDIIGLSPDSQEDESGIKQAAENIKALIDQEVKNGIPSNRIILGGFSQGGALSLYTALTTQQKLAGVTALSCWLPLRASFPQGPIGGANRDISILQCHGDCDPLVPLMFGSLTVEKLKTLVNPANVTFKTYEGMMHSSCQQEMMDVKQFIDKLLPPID
UniProt O14733: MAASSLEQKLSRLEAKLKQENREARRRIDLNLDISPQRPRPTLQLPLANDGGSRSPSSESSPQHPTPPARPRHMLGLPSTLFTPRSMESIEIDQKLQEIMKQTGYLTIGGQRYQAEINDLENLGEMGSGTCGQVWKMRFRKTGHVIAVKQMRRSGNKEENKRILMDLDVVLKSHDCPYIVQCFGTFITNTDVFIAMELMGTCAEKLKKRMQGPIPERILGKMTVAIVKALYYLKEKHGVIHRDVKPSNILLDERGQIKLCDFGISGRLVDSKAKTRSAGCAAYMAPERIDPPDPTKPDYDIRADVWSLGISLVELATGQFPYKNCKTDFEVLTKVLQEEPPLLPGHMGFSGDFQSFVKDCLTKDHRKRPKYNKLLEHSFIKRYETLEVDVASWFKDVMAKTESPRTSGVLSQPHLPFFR
UniProt O95777: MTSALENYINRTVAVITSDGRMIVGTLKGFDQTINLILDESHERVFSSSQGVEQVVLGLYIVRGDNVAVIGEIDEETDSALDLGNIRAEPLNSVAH
UniProt Q5SRI9: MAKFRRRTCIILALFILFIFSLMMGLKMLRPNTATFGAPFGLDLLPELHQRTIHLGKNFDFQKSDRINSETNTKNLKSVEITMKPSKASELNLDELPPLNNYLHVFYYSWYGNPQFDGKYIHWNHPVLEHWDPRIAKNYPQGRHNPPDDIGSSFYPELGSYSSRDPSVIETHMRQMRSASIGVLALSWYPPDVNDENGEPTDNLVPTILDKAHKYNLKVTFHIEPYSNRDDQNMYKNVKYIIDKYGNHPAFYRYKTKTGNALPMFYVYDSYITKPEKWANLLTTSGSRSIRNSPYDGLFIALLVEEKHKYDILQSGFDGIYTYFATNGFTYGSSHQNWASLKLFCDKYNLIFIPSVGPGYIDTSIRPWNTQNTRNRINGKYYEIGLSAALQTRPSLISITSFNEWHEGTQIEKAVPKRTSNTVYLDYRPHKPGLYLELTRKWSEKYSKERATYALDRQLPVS
UniProt Q9UBF1: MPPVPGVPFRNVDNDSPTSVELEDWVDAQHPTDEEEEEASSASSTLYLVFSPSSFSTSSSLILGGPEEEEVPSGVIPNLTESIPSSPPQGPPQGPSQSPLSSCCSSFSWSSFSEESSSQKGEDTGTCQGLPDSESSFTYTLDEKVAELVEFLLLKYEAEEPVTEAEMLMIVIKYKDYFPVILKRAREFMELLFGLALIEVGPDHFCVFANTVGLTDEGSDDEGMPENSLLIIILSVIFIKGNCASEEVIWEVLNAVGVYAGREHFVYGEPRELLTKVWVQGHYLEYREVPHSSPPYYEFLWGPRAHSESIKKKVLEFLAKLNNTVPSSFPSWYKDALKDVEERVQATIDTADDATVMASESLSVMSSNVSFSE
UniProt Q5U5X0: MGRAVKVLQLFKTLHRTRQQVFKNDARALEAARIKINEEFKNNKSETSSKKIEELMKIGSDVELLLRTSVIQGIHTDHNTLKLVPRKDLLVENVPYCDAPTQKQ
UniProt Q9HD34: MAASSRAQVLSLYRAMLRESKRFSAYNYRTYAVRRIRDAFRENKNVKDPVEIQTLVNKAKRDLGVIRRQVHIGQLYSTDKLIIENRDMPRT
UniProt P46734: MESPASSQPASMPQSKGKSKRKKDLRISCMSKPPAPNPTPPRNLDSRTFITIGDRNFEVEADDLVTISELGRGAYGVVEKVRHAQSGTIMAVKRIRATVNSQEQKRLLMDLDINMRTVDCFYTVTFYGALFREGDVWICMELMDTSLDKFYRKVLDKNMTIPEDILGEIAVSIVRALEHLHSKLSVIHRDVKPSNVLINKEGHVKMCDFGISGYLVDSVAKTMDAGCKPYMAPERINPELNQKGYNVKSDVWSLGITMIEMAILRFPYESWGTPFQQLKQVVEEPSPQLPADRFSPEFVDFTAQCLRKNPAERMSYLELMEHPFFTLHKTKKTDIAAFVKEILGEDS
UniProt Q6NSJ5: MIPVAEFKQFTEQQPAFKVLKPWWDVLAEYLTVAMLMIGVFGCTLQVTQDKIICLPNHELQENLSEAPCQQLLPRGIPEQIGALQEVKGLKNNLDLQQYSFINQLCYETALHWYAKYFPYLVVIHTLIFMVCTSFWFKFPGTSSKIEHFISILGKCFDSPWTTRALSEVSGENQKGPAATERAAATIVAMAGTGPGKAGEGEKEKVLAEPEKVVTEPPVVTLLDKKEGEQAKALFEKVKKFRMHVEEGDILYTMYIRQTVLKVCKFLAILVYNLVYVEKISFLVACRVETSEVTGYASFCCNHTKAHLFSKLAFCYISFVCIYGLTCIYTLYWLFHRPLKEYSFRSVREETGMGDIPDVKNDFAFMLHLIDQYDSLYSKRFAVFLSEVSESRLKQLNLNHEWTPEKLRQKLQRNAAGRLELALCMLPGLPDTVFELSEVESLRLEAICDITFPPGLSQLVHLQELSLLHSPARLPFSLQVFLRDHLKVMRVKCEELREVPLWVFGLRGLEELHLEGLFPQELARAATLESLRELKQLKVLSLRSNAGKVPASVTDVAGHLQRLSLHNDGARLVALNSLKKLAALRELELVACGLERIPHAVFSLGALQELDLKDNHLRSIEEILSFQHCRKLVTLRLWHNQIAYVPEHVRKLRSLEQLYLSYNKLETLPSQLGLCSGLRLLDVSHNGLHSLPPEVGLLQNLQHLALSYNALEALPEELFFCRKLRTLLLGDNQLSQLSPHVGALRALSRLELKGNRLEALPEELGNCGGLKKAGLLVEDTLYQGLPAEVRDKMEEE
UniProt P45985: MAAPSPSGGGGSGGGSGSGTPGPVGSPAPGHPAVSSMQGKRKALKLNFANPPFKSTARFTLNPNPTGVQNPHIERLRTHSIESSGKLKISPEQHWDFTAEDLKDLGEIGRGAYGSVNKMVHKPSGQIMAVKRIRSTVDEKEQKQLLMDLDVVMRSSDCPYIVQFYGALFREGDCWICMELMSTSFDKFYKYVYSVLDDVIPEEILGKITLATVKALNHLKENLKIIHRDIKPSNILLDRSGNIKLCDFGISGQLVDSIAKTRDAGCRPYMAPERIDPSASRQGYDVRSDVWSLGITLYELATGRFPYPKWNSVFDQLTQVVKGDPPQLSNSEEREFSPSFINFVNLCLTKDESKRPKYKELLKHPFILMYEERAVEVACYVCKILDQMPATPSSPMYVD
UniProt P28482, whole entry, looked up: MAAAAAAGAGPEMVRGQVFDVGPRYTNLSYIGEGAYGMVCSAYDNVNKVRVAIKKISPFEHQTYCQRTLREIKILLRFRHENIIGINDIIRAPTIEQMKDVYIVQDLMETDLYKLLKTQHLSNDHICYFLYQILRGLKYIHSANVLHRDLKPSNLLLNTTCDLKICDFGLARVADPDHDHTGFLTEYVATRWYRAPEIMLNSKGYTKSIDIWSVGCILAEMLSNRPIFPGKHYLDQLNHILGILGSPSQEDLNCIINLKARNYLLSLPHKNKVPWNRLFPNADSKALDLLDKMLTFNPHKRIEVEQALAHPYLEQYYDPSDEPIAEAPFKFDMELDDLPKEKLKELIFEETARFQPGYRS
UniProt P62312: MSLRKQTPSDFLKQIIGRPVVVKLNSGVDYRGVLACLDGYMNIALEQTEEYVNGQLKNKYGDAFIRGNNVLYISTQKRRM
UniProt Q32MZ4: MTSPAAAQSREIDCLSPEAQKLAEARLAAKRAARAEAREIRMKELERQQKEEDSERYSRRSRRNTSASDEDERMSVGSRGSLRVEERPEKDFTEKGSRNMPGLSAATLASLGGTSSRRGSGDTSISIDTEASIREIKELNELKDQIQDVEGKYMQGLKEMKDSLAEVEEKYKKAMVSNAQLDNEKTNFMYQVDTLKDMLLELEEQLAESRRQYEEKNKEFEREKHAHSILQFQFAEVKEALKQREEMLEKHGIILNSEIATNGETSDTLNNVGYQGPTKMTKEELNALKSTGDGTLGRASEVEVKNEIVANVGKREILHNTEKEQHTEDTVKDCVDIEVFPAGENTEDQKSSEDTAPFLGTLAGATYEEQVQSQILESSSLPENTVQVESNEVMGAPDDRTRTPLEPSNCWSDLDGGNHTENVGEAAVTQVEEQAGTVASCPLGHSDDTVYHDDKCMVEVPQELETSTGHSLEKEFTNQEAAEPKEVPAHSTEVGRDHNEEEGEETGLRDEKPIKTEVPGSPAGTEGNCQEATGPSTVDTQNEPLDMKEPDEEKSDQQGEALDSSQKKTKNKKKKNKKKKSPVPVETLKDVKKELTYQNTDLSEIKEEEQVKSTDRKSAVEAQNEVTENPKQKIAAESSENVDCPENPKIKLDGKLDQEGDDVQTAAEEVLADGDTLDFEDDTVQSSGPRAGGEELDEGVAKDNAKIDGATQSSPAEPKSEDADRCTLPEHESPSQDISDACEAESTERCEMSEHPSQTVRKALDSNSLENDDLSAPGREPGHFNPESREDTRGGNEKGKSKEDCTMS
UniProt Q15013: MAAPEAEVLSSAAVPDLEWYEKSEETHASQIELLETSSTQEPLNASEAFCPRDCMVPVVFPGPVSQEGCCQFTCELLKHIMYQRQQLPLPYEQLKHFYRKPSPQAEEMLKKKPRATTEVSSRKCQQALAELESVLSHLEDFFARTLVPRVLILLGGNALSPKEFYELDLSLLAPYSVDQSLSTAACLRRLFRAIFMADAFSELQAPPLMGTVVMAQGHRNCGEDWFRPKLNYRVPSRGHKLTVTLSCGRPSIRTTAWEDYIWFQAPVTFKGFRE
UniProt Q3MHD2: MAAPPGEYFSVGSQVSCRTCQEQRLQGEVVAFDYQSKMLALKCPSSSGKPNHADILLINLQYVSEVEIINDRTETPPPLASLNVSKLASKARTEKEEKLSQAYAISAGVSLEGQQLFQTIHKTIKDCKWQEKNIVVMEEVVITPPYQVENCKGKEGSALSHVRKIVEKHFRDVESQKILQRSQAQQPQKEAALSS
UniProt O95232: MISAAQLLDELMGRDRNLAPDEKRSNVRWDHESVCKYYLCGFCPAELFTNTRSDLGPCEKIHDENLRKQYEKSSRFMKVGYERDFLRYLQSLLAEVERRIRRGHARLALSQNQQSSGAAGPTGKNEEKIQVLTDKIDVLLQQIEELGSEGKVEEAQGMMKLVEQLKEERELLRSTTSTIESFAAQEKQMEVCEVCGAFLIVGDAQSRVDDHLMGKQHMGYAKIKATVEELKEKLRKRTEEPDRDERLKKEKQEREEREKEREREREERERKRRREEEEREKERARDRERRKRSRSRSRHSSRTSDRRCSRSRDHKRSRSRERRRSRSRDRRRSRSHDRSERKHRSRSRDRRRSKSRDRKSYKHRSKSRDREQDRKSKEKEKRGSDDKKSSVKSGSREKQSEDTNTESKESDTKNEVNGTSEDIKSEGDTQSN
UniProt Q86X29: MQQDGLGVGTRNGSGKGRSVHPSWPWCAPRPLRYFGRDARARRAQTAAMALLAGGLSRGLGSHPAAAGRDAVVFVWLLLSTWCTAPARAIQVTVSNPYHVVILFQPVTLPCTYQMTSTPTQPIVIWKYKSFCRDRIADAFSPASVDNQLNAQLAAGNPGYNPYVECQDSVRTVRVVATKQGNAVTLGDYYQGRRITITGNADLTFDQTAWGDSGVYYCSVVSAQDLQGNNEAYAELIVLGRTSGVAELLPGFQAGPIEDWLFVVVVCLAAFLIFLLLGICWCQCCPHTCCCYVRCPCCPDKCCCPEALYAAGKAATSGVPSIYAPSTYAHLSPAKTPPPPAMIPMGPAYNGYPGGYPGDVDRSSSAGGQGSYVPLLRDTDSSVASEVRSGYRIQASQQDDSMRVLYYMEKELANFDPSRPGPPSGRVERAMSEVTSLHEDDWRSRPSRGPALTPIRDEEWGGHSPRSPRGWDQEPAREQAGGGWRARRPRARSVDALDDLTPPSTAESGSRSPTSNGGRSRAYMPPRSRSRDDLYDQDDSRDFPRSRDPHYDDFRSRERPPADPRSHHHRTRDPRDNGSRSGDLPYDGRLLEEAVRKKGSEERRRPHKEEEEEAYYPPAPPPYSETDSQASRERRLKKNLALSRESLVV
UniProt Q9NX47: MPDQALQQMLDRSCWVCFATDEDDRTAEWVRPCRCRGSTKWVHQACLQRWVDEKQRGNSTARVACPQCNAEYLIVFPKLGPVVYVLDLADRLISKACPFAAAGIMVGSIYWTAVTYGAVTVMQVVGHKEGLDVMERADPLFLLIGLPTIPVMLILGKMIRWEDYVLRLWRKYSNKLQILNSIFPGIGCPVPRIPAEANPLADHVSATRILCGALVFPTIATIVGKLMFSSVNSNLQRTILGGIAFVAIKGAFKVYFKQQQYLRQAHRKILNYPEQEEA

Columns and labels:
Assay in all cases: log2 fold change, soluble protein after heating vs DMSO (PISA); higher = thermal stabilisation; K562 cells, 10 uM, 30 min; active = over 0.2 and 3.5 SD of the protein, either way, in both replicates (recomputed)
[1] = compound: C1=CC=C(C=C1)[C@H](COC2=CC3=C(C=C2)NC(=O)N3)NC(=O)C4=CC=CN(C4=O)CC5=CC(=C(C=C5)F)F
Summary of the method: (§1)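 Thermal stability values are relative to control samples and come from duplicates. They are expressed as log2 fold changes. For measurement, K562 cells (2×10^6 cells/mL) received 10 μM compound for 30 min, and aliquots were heated for 3 min over 48°C-58°C, pooled, and extracted at 4°C in PBS with 0.5% NP-40. Soluble protein, the supernatant after 21,000xg for 90 min, was quantified by TMTpro 16plex LC-MS/MS with equalised channel sums.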

[2] = compound: CC1=C(SC2=C1C(=N[C@H](C3=NN=C(N32)C)CC(=O)N)C4=CC=C(C=C4)Cl)C
Summary of the method: as §1

[3] = compound: CC1=C2C(=CC=C1)N=C(N(C2=O)C3=CC=CC=C3C)CN4C=NC5=C(N=CN=C54)N
Summary of the method: as §1

[4] = compound: Cc1sc2c(c1C)C(c1ccc(Cl)cc1)=N[C@@H](CC(=O)OC(C)(C)C)c1nnc(C)n1-2
Summary of the method: as §1

[5] = compound: c1ccc([C@@H]2C[C@H]2NC2CCNCC2)cc1
Summary of the method: as §1

Measured: log2 fold change

MARCKSL1 (UniProt P49006)
inactive: [1] -0.052 | [2] 0.029 | [3] -0.032 | [4] -0.008 | [5] 0.011

MAP1A isoform 2 (UniProt P78559)
inactive: [1] 0.013 | [2] -0.095 | [3] -0.012 | [4] 0.022 | [5] -0.015

MARCKS (UniProt P29966)
inactive: [1] 0 | [2] -0.046 | [3] -0.066 | [4] -0.065 | [5] 0.031

LYPLA1 (UniProt O75608)
inactive: [1] 0.008 | [2] 0.11 | [3] 0.055 | [4] -0.098 | [5] 0.002

MAP2K7 isoform 4 (UniProt O14733)
inactive: [1] -0.009 | [2] 0.029 | [3] 0.065 | [4] 0.013 | [5] 0.044

MALSU1 (UniProt Q96EH3)
inactive: [1] 0.05 | [2] 0.21 | [3] 0.081 | [4] 0.005 | [5] 0.03

MARK3 (UniProt P27448)
inactive: [1] -0.042 | [2] 0.039 | [3] 0.104 | [4] 0.121 | [5] 0.004

LSM8 (UniProt O95777)
inactive: [1] 0.007 | [2] 0.044 | [3] 0.01 | [4] -0.023 | [5] 0.008

MAPK3 (UniProt P27361)
inactive: [1] -0.014 | [2] 0.039 | [3] -0.02 | [4] -0.059 | [5] -0.029

MANEA (UniProt Q5SRI9)
inactive: [1] 0 | [2] -0.024 | [3] -0.059 | [4] -0.02 | [5] 0.011

MAP4K5 (UniProt Q9Y4K4)
inactive: [1] 0.055 | [2] -0.039 | [3] 0.107 | [4] 0.05 | [5] 0.062

LYSMD2 (UniProt Q8IV50)
inactive: [1] -0.019 | [2] 0.073 | [3] 0.037 | [4] -0.005 | [5] 0.017

MAGEC2 (UniProt Q9UBF1)
inactive: [1] 0.043 | [2] -0.069 | [3] 0.005 | [4] 0.009 | [5] 0.054

LSM3 (UniProt P62310)
inactive: [1] 0.033 | [2] 0.02 | [3] -0.074 | [4] -0.03 | [5] 0.016

MAGEA8 (UniProt P43361)
inactive: [1] 0.075 | [2] -0.035 | [3] 0.02 | [4] -0.119 | [5] 0.077

LYRM7 (UniProt Q5U5X0)
inactive: [1] 0.03 | [2] 0.038 | [3] -0.017 | [4] -0.026 | [5] -0.028

LYRM4 (UniProt Q9HD34)
inactive: [1] 0 | [2] 0.096 | [3] 0.057 | [4] 0.004 | [5] 0.027

MAGT1 (UniProt Q9H0U3)
inactive: [1] 0.042 | [2] -0.006 | [3] 0.005 | [4] 0.034 | [5] 0.004

MARCHF6 (UniProt O60337)
inactive: [1] 0.031 | [2] 0.034 | [3] 0.024 | [4] -0.05 | [5] -0.102

MAK16 (UniProt Q9BXY0)
inactive: [1] 0.017 | [2] -0.103 | [3] -0.21 | [4] 0.049 | [5] 0

MAP7 isoform 7 (UniProt Q14244)
inactive: [1] 0.131 | [2] -0.19 | [3] -0.202 | [4] 0.114 | [5] -0.007

MAPK6 (UniProt Q16659)
inactive: [1] 0.059 | [2] -0.033 | [3] 0.089 | [4] -0.084 | [5] 0.03

LTBP1 isoform 4 (UniProt Q14766)
inactive: [1] -0.135 | [2] 0.148 | [3] 0.072 | [4] -0.079 | [5] 0.011

MAP2K3 isoform 3 (UniProt P46734)
inactive: [1] -0.091 | [2] -0.051 | [3] 0.05 | [4] 0.026 | [5] 0.016

LRRC8E (UniProt Q6NSJ5)
inactive: [1] 0.05 | [2] -0.051 | [3] -0.065 | [4] 0.044 | [5] -0.065

MAP2K4 isoform 2 (UniProt P45985)
inactive: [1] -0.049 | [2] 0.053 | [3] 0.066 | [4] 0.004 | [5] 0.037

LSM7 (UniProt Q9UK45)
inactive: [1] -0.015 | [2] 0.042 | [3] 0.033 | [4] -0.023 | [5] -0.002

MAP3K20 (UniProt Q9NYL2)
inactive: [1] 0.02 | [2] -0.037 | [3] 0.017 | [4] 0.005 | [5] 0.022

MAP1B (UniProt P46821)
inactive: [1] 0.029 | [2] -0.046 | [3] -0.024 | [4] -0.005 | [5] 0.014

MAPK1 (UniProt P28482)
inactive: [1] -0.018 | [2] 0.026 | [3] -0.013 | [4] -0.005 | [5] -0.021

LSM6 (UniProt P62312)
inactive: [1] 0.044 | [2] 0.018 | [3] -0.069 | [4] -0.05 | [5] -0.042

LYPLA2 (UniProt O95372)
inactive: [1] 0.033 | [2] 0.056 | [3] -0.023 | [4] -0.161 | [5] -0.08

MAN2A2 (UniProt P49641)
inactive: [1] 0.025 | [2] -0.037 | [3] 0.071 | [4] 0.007 | [5] -0.057

LRRFIP1 (UniProt Q32MZ4)
inactive: [1] 0.019 | [2] 0.036 | [3] -0.016 | [4] 0.023 | [5] 0.011

LTF (UniProt P02788)
inactive: [1] -0.048 | [2] -0.088 | [3] -0.002 | [4] 0.098 | [5] 0.13

MAD2L1BP isoform 3 (UniProt Q15013)
inactive: [1] -0.01 | [2] 0.008 | [3] -0.011 | [4] 0.016 | [5] 0.066

LSM12 isoform 2 (UniProt Q3MHD2)
inactive: [1] 0.076 | [2] -0.018 | [3] -0.101 | [4] -0.019 | [5] 0.024

MAPRE1 (UniProt Q15691)
inactive: [1] -0.017 | [2] 0.038 | [3] 0.087 | [4] -0.031 | [5] -0.027

LTO1 (UniProt Q8WV07)
inactive: [1] 0.054 | [2] -0.02 | [3] 0.142 | [4] -0.062 | [5] 0.03

LUZP1 (UniProt Q86V48)
inactive: [1] -0.053 | [2] -0.141 | [3] -0.171 | [4] -0.217 | [5] -0.201

MAGED2 (UniProt Q9UNF1)
inactive: [1] 0.002 | [2] 0.21 | [3] 0.111 | [4] -0.035 | [5] -0.029

MAP4K4 isoform 3 (UniProt O95819)
inactive: [1] 0.009 | [2] 0.032 | [3] 0.044 | [4] 0.04
active: [5] 0.264

LSM1 (UniProt O15116)
inactive: [1] -0.025 | [2] 0.08 | [3] 0.05 | [4] -0.083 | [5] 0.022

MAGOHB (UniProt Q96A72)
inactive: [1] 0.02 | [2] 0.042 | [3] 0.079 | [4] -0.153 | [5] -0.129

MAPKAPK5 (UniProt Q8IW41)
inactive: [1] 0.042 | [2] 0.001 | [3] 0.015 | [4] -0.069 | [5] -0.009

LZTFL1 (UniProt Q9NQ48)
inactive: [1] -0.012 | [2] 0.036 | [3] 0.025 | [4] -0.021 | [5] -0.062

LUC7L3 (UniProt O95232)
inactive: [1] 0.002 | [2] -0.021 | [3] 0.023 | [4] 0.021 | [5] 0.028

LZIC isoform 2 (UniProt Q8WZA0)
inactive: [1] 0.041 | [2] 0.047 | [3] 0.007 | [4] 0.002 | [5] 0.001

LSR (UniProt Q86X29)
inactive: [1] -0.016 | [2] 0.033 | [3] 0.006 | [4] -0.034 | [5] 0.015

LYPLAL1 (UniProt Q5VWZ2)
inactive: [1] -0.052 | [2] 0.089 | [3] 0.067 | [4] -0.055 | [5] -0.111

LRRC8A (UniProt Q8IWT6)
inactive: [1] 0.039 | [2] 0 | [3] -0.061 | [4] 0.051 | [5] -0.01

Looked up one by one from the list above, four records:
LRRC8A (UniProt Q8IWT6)
inactive: [1] 0.039 | [2] 0 | [3] -0.061 | [4] 0.051 | [5] -0.01

LZTFL1 (UniProt Q9NQ48)
inactive: [1] -0.012 | [2] 0.036 | [3] 0.025 | [4] -0.021 | [5] -0.062

LYPLAL1 (UniProt Q5VWZ2)
inactive: [1] -0.052 | [2] 0.089 | [3] 0.067 | [4] -0.055 | [5] -0.111

MAPKAPK5 (UniProt Q8IW41)
inactive: [1] 0.042 | [2] 0.001 | [3] 0.015 | [4] -0.069 | [5] -0.009

Following part.

MARCHF5 (UniProt Q9NX47)
inactive: [1] -0.034 | [2] 0.027 | [3] -0.032 | [4] -0.042 | [5] 0.045

MAPK14 isoform 2 (UniProt Q16539)
inactive: [1] -0.067 | [2] 0.139 | [3] 0.077 | [4] -0.011 | [5] -0.043
